Measurements taken from the supplement of paper PMC10849652.
Some of the results follow.

Sequences of proteins named here, by UniProt entry; tags and fusion partners are left off. A change or cut given only in a name is not applied to a line headed by its entry.
UniProt P43251: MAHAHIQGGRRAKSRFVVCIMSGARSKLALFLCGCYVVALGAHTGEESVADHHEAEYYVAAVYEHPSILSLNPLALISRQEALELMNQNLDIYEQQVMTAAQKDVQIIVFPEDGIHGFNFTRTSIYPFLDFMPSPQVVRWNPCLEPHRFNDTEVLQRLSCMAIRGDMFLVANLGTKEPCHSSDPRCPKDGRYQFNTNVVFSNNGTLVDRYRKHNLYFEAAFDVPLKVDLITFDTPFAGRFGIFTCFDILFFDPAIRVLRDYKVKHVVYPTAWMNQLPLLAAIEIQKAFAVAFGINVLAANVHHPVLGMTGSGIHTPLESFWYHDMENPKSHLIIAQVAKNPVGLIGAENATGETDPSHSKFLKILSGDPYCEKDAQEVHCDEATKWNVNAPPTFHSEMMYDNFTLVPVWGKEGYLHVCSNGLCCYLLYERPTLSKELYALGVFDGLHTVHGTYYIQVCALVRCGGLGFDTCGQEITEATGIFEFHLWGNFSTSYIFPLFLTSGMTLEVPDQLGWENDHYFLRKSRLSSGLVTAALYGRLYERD
UniProt Q5T6V5: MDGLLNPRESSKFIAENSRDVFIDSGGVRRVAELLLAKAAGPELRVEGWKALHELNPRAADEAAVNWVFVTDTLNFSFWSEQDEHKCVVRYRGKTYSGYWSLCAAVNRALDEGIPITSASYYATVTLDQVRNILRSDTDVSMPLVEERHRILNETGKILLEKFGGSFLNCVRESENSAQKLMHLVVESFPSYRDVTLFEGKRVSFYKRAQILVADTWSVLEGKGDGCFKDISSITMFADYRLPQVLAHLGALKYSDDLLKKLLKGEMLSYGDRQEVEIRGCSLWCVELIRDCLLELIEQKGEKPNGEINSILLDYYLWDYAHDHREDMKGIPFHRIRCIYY
UniProt Q6UWU4: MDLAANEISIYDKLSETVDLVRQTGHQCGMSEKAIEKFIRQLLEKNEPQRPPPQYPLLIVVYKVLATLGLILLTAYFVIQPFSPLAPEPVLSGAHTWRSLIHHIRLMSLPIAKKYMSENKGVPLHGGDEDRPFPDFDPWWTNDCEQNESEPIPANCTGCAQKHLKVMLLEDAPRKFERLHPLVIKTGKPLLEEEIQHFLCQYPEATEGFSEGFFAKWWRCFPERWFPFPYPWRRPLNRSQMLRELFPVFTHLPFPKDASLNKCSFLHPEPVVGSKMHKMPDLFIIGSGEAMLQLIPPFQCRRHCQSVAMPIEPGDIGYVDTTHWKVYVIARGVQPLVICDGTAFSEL
UniProt Q8TCD1: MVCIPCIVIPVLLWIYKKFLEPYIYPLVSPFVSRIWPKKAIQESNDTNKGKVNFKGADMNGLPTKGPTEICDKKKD
UniProt Q13137: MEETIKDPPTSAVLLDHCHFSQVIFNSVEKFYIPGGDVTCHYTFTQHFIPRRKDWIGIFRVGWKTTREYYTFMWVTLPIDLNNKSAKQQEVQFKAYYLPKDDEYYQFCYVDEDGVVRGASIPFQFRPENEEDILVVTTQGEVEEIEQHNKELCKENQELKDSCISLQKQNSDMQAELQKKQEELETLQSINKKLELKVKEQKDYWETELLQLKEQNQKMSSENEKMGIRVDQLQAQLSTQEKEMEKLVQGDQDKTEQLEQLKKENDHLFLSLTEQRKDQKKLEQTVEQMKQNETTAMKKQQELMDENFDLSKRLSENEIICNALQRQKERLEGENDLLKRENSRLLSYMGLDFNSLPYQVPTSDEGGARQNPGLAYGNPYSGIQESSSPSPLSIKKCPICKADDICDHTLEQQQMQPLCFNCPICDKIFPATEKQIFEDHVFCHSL
UniProt Q9UFG5: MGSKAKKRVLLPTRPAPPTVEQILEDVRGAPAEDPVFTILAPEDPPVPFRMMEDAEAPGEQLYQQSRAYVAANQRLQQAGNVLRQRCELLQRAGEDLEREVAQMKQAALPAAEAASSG
UniProt P27708: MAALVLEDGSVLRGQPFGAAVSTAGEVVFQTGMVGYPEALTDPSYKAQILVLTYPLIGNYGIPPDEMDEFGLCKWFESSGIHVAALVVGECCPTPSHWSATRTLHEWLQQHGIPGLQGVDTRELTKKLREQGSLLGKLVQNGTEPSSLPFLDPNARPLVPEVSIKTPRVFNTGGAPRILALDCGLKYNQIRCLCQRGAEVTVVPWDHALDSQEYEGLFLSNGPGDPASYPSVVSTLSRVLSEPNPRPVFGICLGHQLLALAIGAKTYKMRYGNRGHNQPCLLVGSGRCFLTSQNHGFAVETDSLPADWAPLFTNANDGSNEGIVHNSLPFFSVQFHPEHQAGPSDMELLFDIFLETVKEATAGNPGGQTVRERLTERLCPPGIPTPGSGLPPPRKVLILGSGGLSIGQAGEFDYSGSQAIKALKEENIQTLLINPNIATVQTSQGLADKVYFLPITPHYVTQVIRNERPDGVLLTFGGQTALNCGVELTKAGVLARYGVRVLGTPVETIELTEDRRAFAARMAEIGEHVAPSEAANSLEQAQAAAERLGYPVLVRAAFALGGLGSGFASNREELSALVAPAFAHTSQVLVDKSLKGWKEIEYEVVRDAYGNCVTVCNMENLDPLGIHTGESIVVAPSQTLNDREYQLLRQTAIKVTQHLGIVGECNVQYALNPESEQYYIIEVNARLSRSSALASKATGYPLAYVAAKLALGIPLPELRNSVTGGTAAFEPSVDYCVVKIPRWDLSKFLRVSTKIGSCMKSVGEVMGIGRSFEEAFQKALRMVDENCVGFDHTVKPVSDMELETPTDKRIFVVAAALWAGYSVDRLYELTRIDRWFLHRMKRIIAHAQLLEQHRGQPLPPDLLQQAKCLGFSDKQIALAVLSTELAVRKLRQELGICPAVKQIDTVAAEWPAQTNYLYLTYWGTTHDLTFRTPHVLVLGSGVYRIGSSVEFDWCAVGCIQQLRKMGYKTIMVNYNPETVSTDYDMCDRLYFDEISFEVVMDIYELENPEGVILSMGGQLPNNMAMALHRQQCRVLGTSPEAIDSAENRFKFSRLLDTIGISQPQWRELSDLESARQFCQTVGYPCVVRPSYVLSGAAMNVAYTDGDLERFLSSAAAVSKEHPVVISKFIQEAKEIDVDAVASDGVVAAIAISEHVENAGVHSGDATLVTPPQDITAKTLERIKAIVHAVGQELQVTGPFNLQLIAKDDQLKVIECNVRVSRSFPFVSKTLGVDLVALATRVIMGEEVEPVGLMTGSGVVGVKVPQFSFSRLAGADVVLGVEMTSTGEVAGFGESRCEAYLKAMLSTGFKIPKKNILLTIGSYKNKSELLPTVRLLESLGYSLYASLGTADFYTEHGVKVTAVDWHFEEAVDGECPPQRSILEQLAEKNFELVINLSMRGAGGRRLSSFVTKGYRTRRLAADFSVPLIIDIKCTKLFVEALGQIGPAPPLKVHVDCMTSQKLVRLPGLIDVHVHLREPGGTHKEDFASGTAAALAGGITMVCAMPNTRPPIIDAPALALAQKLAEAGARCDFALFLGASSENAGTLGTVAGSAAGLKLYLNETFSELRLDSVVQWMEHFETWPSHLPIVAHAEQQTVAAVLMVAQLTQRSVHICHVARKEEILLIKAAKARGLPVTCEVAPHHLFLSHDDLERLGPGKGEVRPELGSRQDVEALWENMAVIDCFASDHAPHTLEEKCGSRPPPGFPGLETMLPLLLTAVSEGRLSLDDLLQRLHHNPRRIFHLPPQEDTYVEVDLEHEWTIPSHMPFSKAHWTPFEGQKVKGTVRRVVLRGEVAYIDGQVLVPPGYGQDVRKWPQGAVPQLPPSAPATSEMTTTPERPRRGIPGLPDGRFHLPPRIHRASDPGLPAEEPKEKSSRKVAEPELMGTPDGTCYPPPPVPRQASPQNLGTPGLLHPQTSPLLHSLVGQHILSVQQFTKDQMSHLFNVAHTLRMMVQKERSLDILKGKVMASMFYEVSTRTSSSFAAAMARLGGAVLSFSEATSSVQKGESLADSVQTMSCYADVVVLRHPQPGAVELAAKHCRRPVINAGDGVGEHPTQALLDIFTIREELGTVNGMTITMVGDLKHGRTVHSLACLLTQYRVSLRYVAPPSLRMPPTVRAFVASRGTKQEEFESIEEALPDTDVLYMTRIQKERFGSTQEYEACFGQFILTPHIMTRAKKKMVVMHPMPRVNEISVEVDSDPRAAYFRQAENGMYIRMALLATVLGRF
UniProt Q7L1Q6: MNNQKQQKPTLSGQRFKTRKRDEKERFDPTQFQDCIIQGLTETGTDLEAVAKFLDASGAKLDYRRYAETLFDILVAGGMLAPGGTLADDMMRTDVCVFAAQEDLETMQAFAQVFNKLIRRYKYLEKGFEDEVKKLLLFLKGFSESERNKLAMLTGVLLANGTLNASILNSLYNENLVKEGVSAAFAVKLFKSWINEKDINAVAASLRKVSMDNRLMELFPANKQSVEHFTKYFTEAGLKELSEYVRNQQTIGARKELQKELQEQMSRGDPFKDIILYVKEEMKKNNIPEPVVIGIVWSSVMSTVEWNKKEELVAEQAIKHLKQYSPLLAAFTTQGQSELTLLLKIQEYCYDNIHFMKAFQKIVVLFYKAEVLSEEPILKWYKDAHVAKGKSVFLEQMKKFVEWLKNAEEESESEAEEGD
UniProt Q9H7E9: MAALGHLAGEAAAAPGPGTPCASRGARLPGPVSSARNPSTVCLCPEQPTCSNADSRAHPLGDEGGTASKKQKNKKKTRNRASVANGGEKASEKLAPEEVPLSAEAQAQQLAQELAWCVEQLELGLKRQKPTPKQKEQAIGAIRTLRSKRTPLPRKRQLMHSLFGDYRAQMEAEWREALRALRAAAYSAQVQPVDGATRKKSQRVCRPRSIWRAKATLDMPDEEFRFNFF
UniProt Q5T5Y3: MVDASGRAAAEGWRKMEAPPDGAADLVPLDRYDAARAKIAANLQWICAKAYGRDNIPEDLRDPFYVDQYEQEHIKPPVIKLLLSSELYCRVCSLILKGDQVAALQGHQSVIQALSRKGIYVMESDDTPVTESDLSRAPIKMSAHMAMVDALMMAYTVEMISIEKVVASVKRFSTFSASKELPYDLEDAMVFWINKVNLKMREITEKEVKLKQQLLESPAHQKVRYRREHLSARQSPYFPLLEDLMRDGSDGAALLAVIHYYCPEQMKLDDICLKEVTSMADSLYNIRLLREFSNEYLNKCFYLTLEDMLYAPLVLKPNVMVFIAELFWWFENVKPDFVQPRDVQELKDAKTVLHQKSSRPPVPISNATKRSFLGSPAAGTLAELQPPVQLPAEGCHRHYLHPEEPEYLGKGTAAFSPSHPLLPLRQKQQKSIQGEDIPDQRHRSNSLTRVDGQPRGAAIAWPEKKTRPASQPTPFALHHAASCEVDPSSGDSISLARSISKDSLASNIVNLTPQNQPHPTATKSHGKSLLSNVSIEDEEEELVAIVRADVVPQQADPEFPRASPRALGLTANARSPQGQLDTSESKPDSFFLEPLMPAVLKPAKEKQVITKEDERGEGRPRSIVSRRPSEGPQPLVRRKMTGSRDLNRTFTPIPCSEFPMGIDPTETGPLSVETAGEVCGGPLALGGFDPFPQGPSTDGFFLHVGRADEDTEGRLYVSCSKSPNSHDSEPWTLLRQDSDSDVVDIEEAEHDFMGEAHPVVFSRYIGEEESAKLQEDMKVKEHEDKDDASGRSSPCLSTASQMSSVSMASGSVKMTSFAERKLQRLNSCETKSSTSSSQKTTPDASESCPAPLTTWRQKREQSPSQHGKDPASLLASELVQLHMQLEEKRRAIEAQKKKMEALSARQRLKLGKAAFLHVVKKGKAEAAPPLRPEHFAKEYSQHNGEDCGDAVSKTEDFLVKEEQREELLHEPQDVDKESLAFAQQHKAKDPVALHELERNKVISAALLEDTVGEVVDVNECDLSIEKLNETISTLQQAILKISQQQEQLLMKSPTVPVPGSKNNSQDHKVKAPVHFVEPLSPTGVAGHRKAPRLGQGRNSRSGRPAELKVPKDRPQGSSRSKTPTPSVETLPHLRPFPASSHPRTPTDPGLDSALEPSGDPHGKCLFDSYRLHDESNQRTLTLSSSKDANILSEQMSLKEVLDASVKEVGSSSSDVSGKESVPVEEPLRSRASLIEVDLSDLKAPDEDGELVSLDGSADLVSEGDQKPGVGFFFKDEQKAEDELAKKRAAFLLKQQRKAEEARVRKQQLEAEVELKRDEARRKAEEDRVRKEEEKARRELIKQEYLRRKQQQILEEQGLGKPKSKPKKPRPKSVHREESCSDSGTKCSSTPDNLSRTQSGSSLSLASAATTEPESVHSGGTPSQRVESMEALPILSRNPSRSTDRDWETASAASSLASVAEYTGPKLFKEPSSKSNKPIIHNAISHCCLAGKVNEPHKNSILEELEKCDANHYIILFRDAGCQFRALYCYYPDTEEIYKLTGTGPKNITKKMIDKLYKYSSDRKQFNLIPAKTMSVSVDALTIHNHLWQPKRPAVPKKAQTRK
UniProt Q9Y2V2: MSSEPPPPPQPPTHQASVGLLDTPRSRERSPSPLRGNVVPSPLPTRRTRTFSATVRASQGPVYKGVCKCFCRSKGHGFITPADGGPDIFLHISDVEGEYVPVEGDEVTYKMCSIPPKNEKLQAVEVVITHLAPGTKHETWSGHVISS

What was measured:
Assay in all cases: log2 fold change, soluble protein after heating vs DMSO (PISA); higher = thermal stabilisation; K562 cells, 10 uM, 30 min; active = over 0.2 and 3.5 SD of the protein, either way, in both replicates (recomputed)
[1] = compound: CC[C@@H]1C(=O)N(C)c2cnc(Nc3ccc(C(=O)NC4CCN(C)CC4)cc3OC)nc2N1C1CCCC1
How it was run: (§1)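 Soluble protein was quantified by TMTpro 16plex LC-MS/MS after channel sums were equalised. It was obtained as the supernatant after 21,000xg for 90 min from pooled aliquots of K562 cells (2×10^6 cells/mL, 10 μM compound, 30 min) heated for 3 min across 48°C-58°C and extracted in PBS with 0.5% NP-40 at 4°C. Thermal stability values are relative to control samples and come from duplicates. They are given as log2 fold changes.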

[2] = compound: CC[C@@H]1C(=O)N(C)c2cnc(Nc3ccc(C(=O)N[C@H]4CC[C@H](N5CCN(CC6CC6)CC5)CC4)cc3OC)nc2N1C(C)C [volasertib]
How it was run: as §1

[3] = compound: CC[C@H](C)N1C=C(C2=C(C=C(C=C21)C3=CN=C(C=C3)N4CCNCC4)C(=O)NCC5=C(C=C(NC5=O)C)C)C
How it was run: as §1

[4] = compound: CC[C@H](C)[C@@H](C(=O)N[C@@H]([C@@H](C)O)C(=O)N[C@@H](CC(C)C)C(=O)[C@]1(CO1)C)NC(=O)[C@H]([C@@H](C)CC)N(C)C(=O)C [epoxomicin]
How it was run: as §1

[5] = compound: CCn1c(C(=O)N(C2CC2)C2CC2)cc2c3c(ncn3C)c(Nc3cc(C)n(C)n3)nc21
How it was run: as §1

[6] = compound: CCn1cc(-c2ccnc3[nH]c(-c4cccc(CN(C)C)c4)cc23)c(-c2ccc(NC(=O)N(C)C)cc2)n1
How it was run: as §1

[7] = compound: CN(C)CC(=O)Nc1ccc2[nH]c(=O)c3ccccc3c2c1
How it was run: as §1

[8] = compound: CN(CCOC1=CC=C(C=C1)C[C@H]2C(=O)NC(=O)S2)C3=CC=CC=N3 (racemic) [rosiglitazone]
How it was run: as §1

[9] = compound: CN1C2=C(C3=C1C(=O)N(N=C3)CC4=CC(=CC=C4)N)SC(=C2)S(=O)C
How it was run: as §1

[10] = compound: CN1CCC(CNc2ccc3ncc(-c4cccc(OC(F)(F)F)c4)n3n2)CC1
How it was run: as §1

Measured: log2 fold change

BTF3 (UniProt P20290)
inactive: [1] -0.034 | [2] 0.078 | [3] -0.047 | [4] 0.013 | [5] 0.026 | [6] -0.001 | [7] -0.035 | [8] 0.009 | [9] -0.041 | [10] 0.018

BUD23 isoform 3 (UniProt O43709)
inactive: [1] 0.099 | [2] 0.152 | [3] -0.02 | [4] -0.096 | [5] 0.027 | [6] 0.074 | [7] -0.11 | [8] 0.019 | [9] 0.074 | [10] 0.006

CAB39 (UniProt Q9Y376)
inactive: [1] 0.004 | [2] -0.015 | [3] -0.023 | [4] 0.005 | [5] 0.021 | [6] -0.034 | [7] -0.008 | [8] -0.016 | [9] -0.066 | [10] -0.036

BTD isoform 3 (UniProt P43251)
inactive: [1] 0.14 | [2] -0.034 | [3] 0.018 | [4] -0.06 | [5] -0.013 | [7] 0.166 | [8] -0.011 | [9] -0.008

C9orf64 (UniProt Q5T6V5)
inactive: [1] -0.066 | [2] -0.309 | [3] 0.103 | [4] -0.004 | [6] -0.149 | [7] 0.075 | [9] -0.007
active: [10] -0.396

C4orf33 (UniProt Q8N1A6)
inactive: [1] 0.044 | [2] 0.066 | [3] 0.007 | [4] -0.084 | [6] -0.062 | [7] -0.007 | [9] 0.009 | [10] -0.027

CAMKK2 (UniProt Q96RR4)
inactive: [1] 0.374 | [3] 0.014 | [4] 0.211 | [6] -0.093 | [7] 0.145 | [9] -0.008 | [10] 0.045
active: [2] 0.617

C16orf58 (UniProt Q96GQ5)
inactive: [1] -0.055 | [2] -0.013 | [3] -0.005 | [4] 0.029 | [6] -0.018 | [7] 0.006 | [9] -0.037 | [10] -0.086

C19orf53 (UniProt Q9UNZ5)
inactive: [1] 0.205 | [2] 0.412 | [3] 0.045 | [4] -0.264 | [6] 0.239 | [7] -0.189 | [9] 0.34 | [10] 0.2

C6orf89 isoform 2 (UniProt Q6UWU4)
inactive: [1] 0.015 | [2] 0.009 | [3] -0.05 | [4] 0.045 | [5] 0.016 | [6] -0.073 | [7] 0.028 | [8] 0.032 | [9] -0.001 | [10] 0.047

CA1 (UniProt P00915)
inactive: [1] 0 | [2] -0.02 | [3] 0.01 | [4] 0.016 | [6] 0.042 | [7] -0.002 | [9] -0.034 | [10] 0.134

C18orf32 (UniProt Q8TCD1)
inactive: [1] 0.091 | [2] 0.038 | [3] -0.068 | [4] 0.131 | [5] 0.04 | [6] -0.101 | [7] 0.079 | [8] 0.066 | [10] 0.097

CALCOCO2 isoform 4 (UniProt Q13137)
active: [1] -0.634 | [2] -0.471
inactive: [3] -0.024 | [4] 0.035 | [6] 0.059 | [7] 0.01 | [9] 0.055 | [10] -0.149

BUB1B isoform 3 (UniProt O60566)
inactive: [1] -0.127 | [3] 0.056 | [4] 0.02 | [6] 0.043 | [7] 0.065 | [9] 0.013 | [10] -0.078
active: [2] -0.66

C8orf82 (UniProt Q6P1X6)
inactive: [1] -0.014 | [2] 0.029 | [3] -0.015 | [4] 0.102 | [5] -0.011 | [6] 0.006 | [7] -0.013 | [8] -0.014 | [9] -0.083 | [10] 0.018

C19orf25 (UniProt Q9UFG5)
inactive: [1] 0.048 | [2] -0.002 | [3] -0.019 | [4] 0.219 | [5] 0.066 | [6] -0.015 | [7] 0.322 | [8] 0.07 | [9] -0.032 | [10] 0.105

CAD (UniProt P27708)
inactive: [1] 0.006 | [2] 0.009 | [3] 0.019 | [4] 0.034 | [6] -0.08 | [7] 0.022 | [9] -0.028
active: [10] -0.458

C4A (UniProt P0C0L4)
inactive: [1] -0.147 | [2] -0.216 | [3] -0.048 | [4] -0.316 | [6] 0.197 | [7] 0 | [9] 0.223 | [10] -0.32

CAMK2G isoform 6 (UniProt Q13555)
inactive: [1] 0.095 | [2] -0.15 | [3] 0.072 | [4] -0.028 | [6] 0.042 | [7] 0.035 | [9] 0.064 | [10] -0.319

C11orf68 (UniProt Q9H3H3)
inactive: [1] -0.033 | [2] -0.037 | [3] -0.009 | [4] 0.015 | [5] 0.008 | [6] -0.064 | [7] 0 | [8] 0.03 | [9] -0.028 | [10] -0.115

BZW1 isoform 3 (UniProt Q7L1Q6)
active: [2] -0.82
inactive: [1] -0.273 | [3] 0.114 | [4] 0.019 | [6] -0.041 | [7] 0.104 | [9] 0.068 | [10] -0.33

C2CD2 (UniProt Q9Y426)
inactive: [1] -0.128 | [2] -0.038 | [3] 0.026 | [4] 0.062 | [5] -0.112 | [6] 0 | [7] -0.007 | [8] 0.103 | [9] 0.017 | [10] -0.008

C8orf33 isoform 2 (UniProt Q9H7E9)
inactive: [1] 0.212 | [2] 0.576 | [3] -0.084 | [4] -0.427 | [6] 0.333 | [7] -0.229 | [8] 0.015 | [9] 0.325 | [10] 0.442

C5orf51 (UniProt A6NDU8)
inactive: [1] -0.231 | [2] -0.194 | [3] 0.088 | [4] -0.012 | [5] -0.003 | [6] 0.035 | [7] 0.085 | [8] 0.078 | [9] -0.017 | [10] -0.284

2 records drawn at random from those above, as already listed:
C8orf82 (UniProt Q6P1X6)
inactive: [1] -0.014 | [2] 0.029 | [3] -0.015 | [4] 0.102 | [5] -0.011 | [6] 0.006 | [7] -0.013 | [8] -0.014 | [9] -0.083 | [10] 0.018

CAD (UniProt P27708)
inactive: [1] 0.006 | [2] 0.009 | [3] 0.019 | [4] 0.034 | [6] -0.08 | [7] 0.022 | [9] -0.028
active: [10] -0.458

Following part:

CAMSAP1 isoform 3 (UniProt Q5T5Y3)
inactive: [1] -0.044 | [3] 0.184 | [4] 0.068 | [6] -0.003 | [7] -0.232 | [9] 0.03 | [10] -0.254
active: [2] -0.576

CAPNS1 (UniProt P04632)
inactive: [1] 0.04 | [2] 0.145 | [3] -0.027 | [4] -0.014 | [5] 0.041 | [6] -0.016 | [7] -0.028 | [8] -0.008 | [9] -0.059 | [10] -0.014

CAPZB isoform 2 (UniProt P47756)
inactive: [1] -0.055 | [2] -0.034 | [3] -0.032 | [4] 0.019 | [5] 0.025 | [6] 0.033 | [7] -0.069 | [8] -0.015 | [9] -0.057 | [10] -0.05

CARHSP1 (UniProt Q9Y2V2)
inactive: [1] 0.086 | [2] 0.197 | [3] 0 | [4] -0.026 | [5] 0.012 | [6] -0.021 | [7] 0.006 | [8] 0.074 | [9] -0.105 | [10] -0.035

BST2 (UniProt Q10589)
inactive: [1] 0.091 | [2] 0.206 | [3] -0.062 | [4] -0.025 | [6] 0.045 | [7] -0.008 | [9] 0
active: [10] 0.223

CA8 (UniProt P35219)
active: [2] -0.329
inactive: [1] -0.055 | [3] 0.038 | [4] 0.01 | [6] -0.093 | [7] -0.002 | [9] -0.099 | [10] -0.127

CALB1 (UniProt P05937)
inactive: [1] -0.123 | [2] -0.092 | [3] -0.007 | [4] 0.043 | [6] 0.05 | [7] 0.016 | [9] -0.039
active: [10] -0.282

CAAP1 (UniProt Q9H8G2)
inactive: [1] 0.056 | [2] -0.039 | [3] 0.063 | [4] -0.135 | [5] 0.026 | [7] 0.063 | [8] 0.047 | [9] 0.067

CAPZA1 (UniProt P52907)
inactive: [1] -0.011 | [2] -0.052 | [3] -0.018 | [4] 0.008 | [5] 0.015 | [6] -0.072 | [7] 0.026 | [8] -0.005 | [9] -0.039 | [10] 0.004
